Source: patent US5698670A, “Aureobasidins” (priority 1993, dated 1997)
Converted amounts (≈) assume the structure as drawn. Not every detail of the peptide structures is certain; ends, links or a residue may be inferred. Numbered stars: 1 amine (or outer) side, 2 acyl side, 3 side chain; on linkers, the order of the positions; unused ones are H or OH. Square brackets hold non-standard residues; d marks the D form. Peptide text beside a SMILES is read from it. * marks the point of attachment. X1 = CC[C@@H](C)[C@@H](O[*:1])C(=O)[*:2]; NMeVal(β-OH) = CN[C@H](C(=O)O)C(C)(C)O; aIle = CC[C@@H](C)[C@H](N)C(=O)O; dNMeV = CN[C@@H](C(=O)O)C(C)C; NMeV = CN[C@H](C(=O)O)C(C)C; dNMeA = CN[C@H](C)C(=O)O; Bn = c1ccc(C*)cc1

What was measured:
Assay type in all cases: cell-based
Conditions in all cases: saburo-dextrose agarose culture, 30° C., 2 days
[1] = tested on: Candida albicans TIMM0171; test: MIC by agarose plate dilution method
Description: (§1) MIC was measured by agarose plate dilution method (cultivated at 30° C. for 2 days) using saburo-dextrose agarose culture (glucose 2 W/V %, polipeptone 1 W/V %, agarose 1.5 W/V %). Control was Aureobasidin A (AbA).

[2] = tested on: Candida albicans TIMM0136; test: MIC by agarose plate dilution method
Description: as §1

[3] = tested on: Candida glabrata TIMM1062; test: MIC by agarose plate dilution method
Description: as §1

[4] = tested on: Candida kefyr TIMM0301; test: MIC by agarose plate dilution method
Description: as §1

[5] = tested on: Cryptococcus neoformans TIMM0354
Description: as §1

[6] = tested on: Aspergillus fumigatus TIMM2766
Description: as §1

## CC[C@@H](C)[C@@H]1NC(=O)[C@@H]2CCCN2C(=O)[C@@H](C)N(C)C(=O)[C@H](CC(C)C)NC(=O)[C@H](C(C)C)N(C)C(=O)[C@@H]([C@H](C)CC)OC(=O)[C@H](C(C)(C)O)N(C)C(=O)[C@H](CC(C)C)NC(=O)[C@H](C(C)C)N(C)C1=O [Compound 5, cyclo(L -aIle-L -MeVal-L -Leu-L -βHOMeVal-D -Hmp-L -MeVal-L -Leu-D -MeAla-L -Pro)] (cyclo(L[dNMeA]P[aIle][NMeV]L[NMeVal(β-OH)][X1][NMeV]))
[1]
  MIC: 0.05 µg/mL (≈ 0.0504 µM)
[2]
  MIC: 0.10 µg/mL (≈ 0.101 µM)
[3]
  MIC: 0.20 µg/mL (≈ 0.202 µM)
[4]
  MIC: 0.20 µg/mL (≈ 0.202 µM)
[5]
  MIC: 0.39 µg/mL (≈ 0.393 µM)

## CC[C@@H](C)[C@@H]1NC(=O)[C@@H]2CCCN2C(=O)[C@@H](C)N(C)C(=O)[C@H](Cc2ccc(OC)cc2)NC(=O)[C@H](C(C)C)N(C)C(=O)[C@@H]([C@H](C)CC)OC(=O)[C@H](C(C)(C)O)N(C)C(=O)[C@H](CC(C)C)NC(=O)[C@H](C(C)C)N(C)C1=O [Compound 11, cyclo(L -aIle-L -MeVal-L -Leu-L -βHOMeVal-D -Hmp-L -MeVal-L -Tyr(Me)-D -MeAla-L -Pro)] (cyclo(L[NMeVal(β-OH)][X1][NMeV]Y(Me)[dNMeA]P[aIle][NMeV]))
[1]
  MIC: 0.10 µg/mL (≈ 0.0948 µM)
[2]
  MIC: 0.10 µg/mL (≈ 0.0948 µM)
[3]
  MIC: 0.39 µg/mL (≈ 0.37 µM)
[4]
  MIC: 0.39 µg/mL (≈ 0.37 µM)
[5]
  MIC: 0.78 µg/mL (≈ 0.739 µM)

## CC[C@@H](C)[C@@H]1NC(=O)[C@@H]2CCCN2C(=O)[C@@H](C(C)C)N(C)C(=O)[C@H](Cc2ccccc2)NC(=O)[C@H](C(C)C)N(C)C(=O)[C@@H]([C@H](C)CC)OC(=O)[C@H](C(C)(C)O)N(C)C(=O)[C@H](CC(C)C)NC(=O)[C@H](C(C)C)N(C)C1=O [Compound 2, cyclo(L -aIle-L -MeVal-L -Leu-L -βHOMeVal-D -Hmp-L -MeVal-L -Phe-D -MeVal-L -Pro)] (cyclo(F[dNMeV]P[aIle][NMeV]L[NMeVal(β-OH)][X1][NMeV]))
[1]
  MIC: 0.025 µg/mL (≈ 0.0237 µM)
[2]
  MIC: 0.025 µg/mL (≈ 0.0237 µM)
[3]
  MIC: 0.20 µg/mL (≈ 0.19 µM)
[4]
  MIC: 0.20 µg/mL (≈ 0.19 µM)
[5]
  MIC: 1.56 µg/mL (≈ 1.48 µM)

## CC[C@@H](C)[C@@H]1NC(=O)[C@@H]2CCCN2C(=O)[C@@H](C)N(C)C(=O)[C@H](COCc2ccccc2)NC(=O)[C@H](C(C)C)N(C)C(=O)[C@@H]([C@H](C)CC)OC(=O)[C@H](C(C)(C)O)N(C)C(=O)[C@H](CC(C)C)NC(=O)[C@H](C(C)C)N(C)C1=O [Compound 7, cyclo(L -aIle-L -MeVal-L -Leu-L -βHOMeVal-D -Hmp-L -MeVal-L -Ser(Bzl)-D -MeAla-L -Pro)] (cyclo(L[NMeVal(β-OH)][X1][NMeV]S(Bn)[dNMeA]P[aIle][NMeV]))
[1]
  MIC: 0.05 µg/mL (≈ 0.0474 µM)
[2]
  MIC: 0.10 µg/mL (≈ 0.0948 µM)
[3]
  MIC: 0.78 µg/mL (≈ 0.739 µM)
[4]
  MIC: 0.78 µg/mL (≈ 0.739 µM)
[6]
  MIC: > 25 µg/mL
[5]
  MIC: 0.39 µg/mL (≈ 0.37 µM)
